In paper PMC6166740:
Results are given in words; binding and its absence hold for the method and conditions named. In cells and extracts the contact can be indirect. Some results given as binding are weak or reduced against the parent protein; the word gives no strength. Where a sequence is shown, tags or fusion partners need not be part of it.

Amino acid sequences for entries named in this document (tags omitted).
UniProt Q9UG01: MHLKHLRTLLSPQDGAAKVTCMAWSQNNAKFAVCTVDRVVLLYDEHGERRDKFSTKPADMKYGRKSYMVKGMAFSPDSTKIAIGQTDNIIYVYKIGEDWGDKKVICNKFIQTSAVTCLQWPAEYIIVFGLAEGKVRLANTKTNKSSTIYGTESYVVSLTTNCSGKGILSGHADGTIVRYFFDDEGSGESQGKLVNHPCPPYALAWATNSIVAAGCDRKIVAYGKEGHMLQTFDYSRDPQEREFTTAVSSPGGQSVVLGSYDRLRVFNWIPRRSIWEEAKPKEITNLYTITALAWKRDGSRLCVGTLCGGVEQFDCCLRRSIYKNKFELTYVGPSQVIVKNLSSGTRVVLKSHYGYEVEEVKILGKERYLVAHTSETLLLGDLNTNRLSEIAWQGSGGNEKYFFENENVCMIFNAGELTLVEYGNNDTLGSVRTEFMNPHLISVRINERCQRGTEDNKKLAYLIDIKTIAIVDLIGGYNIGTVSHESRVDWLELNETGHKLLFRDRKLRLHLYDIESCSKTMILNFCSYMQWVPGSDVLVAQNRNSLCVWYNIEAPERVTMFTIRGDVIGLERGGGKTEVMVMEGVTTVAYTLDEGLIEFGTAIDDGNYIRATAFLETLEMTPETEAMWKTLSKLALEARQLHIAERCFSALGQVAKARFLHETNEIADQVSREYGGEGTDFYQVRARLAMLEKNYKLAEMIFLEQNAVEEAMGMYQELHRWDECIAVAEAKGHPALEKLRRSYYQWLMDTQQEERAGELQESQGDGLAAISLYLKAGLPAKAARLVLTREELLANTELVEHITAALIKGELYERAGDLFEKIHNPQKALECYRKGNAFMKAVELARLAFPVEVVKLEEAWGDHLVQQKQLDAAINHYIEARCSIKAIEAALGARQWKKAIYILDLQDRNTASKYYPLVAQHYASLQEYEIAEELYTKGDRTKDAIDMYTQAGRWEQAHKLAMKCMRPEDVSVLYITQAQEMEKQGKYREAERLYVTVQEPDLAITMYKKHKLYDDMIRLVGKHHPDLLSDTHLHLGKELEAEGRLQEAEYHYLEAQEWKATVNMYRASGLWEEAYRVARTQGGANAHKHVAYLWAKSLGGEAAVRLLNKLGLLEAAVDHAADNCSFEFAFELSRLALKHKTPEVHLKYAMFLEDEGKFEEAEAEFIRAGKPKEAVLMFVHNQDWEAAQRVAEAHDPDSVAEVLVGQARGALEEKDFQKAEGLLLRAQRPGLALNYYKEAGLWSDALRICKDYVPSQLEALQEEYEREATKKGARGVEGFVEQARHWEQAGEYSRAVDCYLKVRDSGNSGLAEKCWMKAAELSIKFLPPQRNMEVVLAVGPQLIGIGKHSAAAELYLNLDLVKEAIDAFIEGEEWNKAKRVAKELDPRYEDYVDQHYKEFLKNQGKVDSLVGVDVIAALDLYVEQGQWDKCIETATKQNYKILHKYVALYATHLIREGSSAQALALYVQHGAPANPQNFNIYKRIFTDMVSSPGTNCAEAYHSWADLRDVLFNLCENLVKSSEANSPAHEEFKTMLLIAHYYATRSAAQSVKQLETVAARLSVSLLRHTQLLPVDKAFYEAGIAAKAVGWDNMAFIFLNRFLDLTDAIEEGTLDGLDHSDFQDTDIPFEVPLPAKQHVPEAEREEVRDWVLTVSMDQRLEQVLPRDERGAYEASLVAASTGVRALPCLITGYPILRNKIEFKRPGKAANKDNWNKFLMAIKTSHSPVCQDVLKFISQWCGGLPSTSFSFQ

Key:
Experiment in all cases: co-IP; Figure S1A, legend not shown; method taken from the paper's only described test of pairs (co-IP from transfected HEK293T cells)
[1] = molecular target: IFT172 (UniProt Q9UG01)
[2] = molecular target: T1, TTC21B (UniProt Q7Z4L5)
T1 sequence: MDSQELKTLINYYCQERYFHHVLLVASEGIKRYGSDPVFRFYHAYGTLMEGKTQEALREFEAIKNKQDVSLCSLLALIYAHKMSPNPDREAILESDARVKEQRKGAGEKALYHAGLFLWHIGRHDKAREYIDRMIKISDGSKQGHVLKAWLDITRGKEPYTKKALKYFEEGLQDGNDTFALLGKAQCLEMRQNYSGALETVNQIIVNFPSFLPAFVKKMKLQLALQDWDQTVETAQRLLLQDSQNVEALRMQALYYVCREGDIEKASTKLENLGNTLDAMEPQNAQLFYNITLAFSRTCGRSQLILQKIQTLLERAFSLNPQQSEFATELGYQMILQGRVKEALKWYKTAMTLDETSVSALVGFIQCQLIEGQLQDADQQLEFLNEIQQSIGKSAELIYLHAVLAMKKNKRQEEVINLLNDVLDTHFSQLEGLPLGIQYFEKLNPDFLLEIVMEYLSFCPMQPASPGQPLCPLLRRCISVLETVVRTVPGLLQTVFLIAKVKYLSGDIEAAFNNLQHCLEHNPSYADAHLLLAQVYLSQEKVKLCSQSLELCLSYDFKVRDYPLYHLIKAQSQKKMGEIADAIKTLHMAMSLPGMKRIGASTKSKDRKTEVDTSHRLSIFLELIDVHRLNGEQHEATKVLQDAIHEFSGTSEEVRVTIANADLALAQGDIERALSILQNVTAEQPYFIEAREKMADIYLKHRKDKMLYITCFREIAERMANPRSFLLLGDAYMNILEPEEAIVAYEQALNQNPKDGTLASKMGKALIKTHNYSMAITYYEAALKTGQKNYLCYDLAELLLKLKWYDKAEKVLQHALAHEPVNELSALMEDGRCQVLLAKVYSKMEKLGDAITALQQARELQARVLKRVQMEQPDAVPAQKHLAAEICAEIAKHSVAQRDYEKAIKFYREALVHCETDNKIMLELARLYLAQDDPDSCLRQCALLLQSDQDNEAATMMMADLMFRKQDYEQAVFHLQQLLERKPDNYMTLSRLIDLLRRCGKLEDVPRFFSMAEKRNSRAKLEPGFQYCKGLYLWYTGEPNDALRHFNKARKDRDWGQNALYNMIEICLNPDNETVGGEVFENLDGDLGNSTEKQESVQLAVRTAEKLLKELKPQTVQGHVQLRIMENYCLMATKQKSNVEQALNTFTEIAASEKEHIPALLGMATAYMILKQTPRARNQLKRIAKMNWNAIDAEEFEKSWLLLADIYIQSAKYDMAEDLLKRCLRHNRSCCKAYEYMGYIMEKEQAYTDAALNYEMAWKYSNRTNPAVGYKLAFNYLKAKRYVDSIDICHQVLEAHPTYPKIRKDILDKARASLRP

[3] = molecular target: T2, WDR19 (UniProt Q8NEZ3)
T2 sequence: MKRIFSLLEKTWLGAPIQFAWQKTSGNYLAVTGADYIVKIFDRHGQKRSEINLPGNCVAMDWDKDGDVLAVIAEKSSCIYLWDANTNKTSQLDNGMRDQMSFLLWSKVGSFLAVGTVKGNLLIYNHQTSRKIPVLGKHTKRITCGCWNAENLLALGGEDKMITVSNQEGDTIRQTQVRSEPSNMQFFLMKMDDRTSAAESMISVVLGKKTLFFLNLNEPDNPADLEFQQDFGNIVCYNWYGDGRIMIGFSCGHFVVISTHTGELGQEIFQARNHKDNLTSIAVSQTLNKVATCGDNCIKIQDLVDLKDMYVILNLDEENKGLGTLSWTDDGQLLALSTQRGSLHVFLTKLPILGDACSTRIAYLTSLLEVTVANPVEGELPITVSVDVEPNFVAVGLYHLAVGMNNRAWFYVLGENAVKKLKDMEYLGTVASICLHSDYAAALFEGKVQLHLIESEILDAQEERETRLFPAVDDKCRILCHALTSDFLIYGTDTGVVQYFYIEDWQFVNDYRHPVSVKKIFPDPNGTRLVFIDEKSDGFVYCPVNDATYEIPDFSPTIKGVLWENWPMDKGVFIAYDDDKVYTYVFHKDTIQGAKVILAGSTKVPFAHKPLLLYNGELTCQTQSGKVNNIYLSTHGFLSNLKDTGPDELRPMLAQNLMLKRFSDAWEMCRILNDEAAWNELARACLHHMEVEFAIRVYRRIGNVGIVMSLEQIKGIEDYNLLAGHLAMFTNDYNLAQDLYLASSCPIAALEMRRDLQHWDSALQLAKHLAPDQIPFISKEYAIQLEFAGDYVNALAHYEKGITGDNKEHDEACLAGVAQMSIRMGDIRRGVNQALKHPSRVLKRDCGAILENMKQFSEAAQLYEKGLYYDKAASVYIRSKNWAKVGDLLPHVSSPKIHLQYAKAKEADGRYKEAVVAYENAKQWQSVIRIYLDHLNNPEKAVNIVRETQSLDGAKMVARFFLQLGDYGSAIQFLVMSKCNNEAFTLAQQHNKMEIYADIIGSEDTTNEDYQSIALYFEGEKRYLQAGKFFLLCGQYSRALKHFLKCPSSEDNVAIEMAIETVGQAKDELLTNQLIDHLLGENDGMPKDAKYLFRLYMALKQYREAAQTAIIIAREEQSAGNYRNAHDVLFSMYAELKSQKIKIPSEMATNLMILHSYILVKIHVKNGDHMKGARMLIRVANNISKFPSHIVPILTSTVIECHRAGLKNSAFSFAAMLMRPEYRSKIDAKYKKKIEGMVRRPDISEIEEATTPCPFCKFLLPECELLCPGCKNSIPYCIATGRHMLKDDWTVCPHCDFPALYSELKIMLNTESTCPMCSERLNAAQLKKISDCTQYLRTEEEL

Measured: binding

B1: V5-tagged ANKS6 (ankyrin repeat and sterile alpha motif domain-containing 6) (protein, UniProt Q68DC2 1-871)
chain: MGEGGLPPAFQLLLRACDQGDTETARRLLEPGAAEPAERGAEPEAGAEPAGAEVAGPGAAAAGAVGAPVPVDCSDEAGNTALQFAAAGGHEPLVRFLLRRGASVNSRNHYGWSALMQAARFGHVSVAHLLLDHGADVNAQNRLGASVLTVASRGGHLGVVKLLLEAGAFVDHHHPSGEQLGLGGSRDEPLDITALMAAIQHGHEAVVRLLMEWGADPNHAARTVGWSPLMLAALTGRLGVAQQLVEKGANPDHLSVLEKTAFEVALDCKHRDLVDYLDPLTTVRPKTDEEKRRPDIFHALKMGNFQLVKEIADEDPSHVNLVNGDGATPLMLAAVTGQLALVQLLVERHADVDKQDSVHGWTALMQATYHGNKEIVKYLLNQGADVTLRAKNGYTAFDLVMLLNDPDTELVRLLASVCMQVNKDKGRPSHQPPLPHSKVRQPWSIPVLPDDKGGLKSWWNRMSNRFRKLKLMQTLPRGLSSNQPLPFSDEPEPALDSTMRAAPQDKTSRSALPDAAPVTKDNGPGSTRGEKEDTLLTTMLRNGAPLTRLPSDKLKAVIPPFLPPSSFELWSSDRSRTRHNGKADPMKTALPQRASRGHPVGGGGTDTTPVRPVKFPSLPRSPASSANSGNFNHSPHSSGGSSGVGVSRHGGELLNRSGGSIDNVLSQIAAQRKKAAGLLEQKPSHRSSPVGPAPGSSPSELPASPAGGSAPVGKKLETSKRPPSGTSTTSKSTSPTLTPSPSPKGHTAESSVSSSSSHRQSKSSGGSSSGTITDEDELTGILKKLSLEKYQPIFEEQEVDMEAFLTLTDGDLKELGIKTDGSRQQILAAISELNAGKGRERQILQETIHNFHSSFESSASNTRAPGNSPCA
binds: [1] | [2] | [3]
